In experiment [1] the target is GFP-tagged GEXP10 (GEXP10-GFP) (P. falciparum 3D7) (UniProt Q8I2D9). In words: co-IP.
The target of experiment [2] is GFP-tagged virulence complex assembly protein 1 (VCAP1-GFP) (P. falciparum 3D7) (UniProt Q8IEJ0). Put plainly: co-IP.

No constants are given. Whether binding was seen depends on the method and setting. Binding seen in cells or lysates may run through a third protein. Binding can be weak; no strength is given.

As for “membrane-associated histidine-rich protein 1 (MAHRP1), endogenous (from UniProt C0H5L9 1-249)”, the binding result in experiment [1] and in experiment [2] was “binds” in each case.

The record behind these values is paper doi:10.1101/741033.
